Experimental findings from article PMC4899616 are described below.

The test has as its target T1, BRAT1-3xFlag (Bromodomain and ATPase domain-containing protein 1, AT1G05910) (Arabidopsis thaliana) (UniProt F4IAE9).
T1 sequence: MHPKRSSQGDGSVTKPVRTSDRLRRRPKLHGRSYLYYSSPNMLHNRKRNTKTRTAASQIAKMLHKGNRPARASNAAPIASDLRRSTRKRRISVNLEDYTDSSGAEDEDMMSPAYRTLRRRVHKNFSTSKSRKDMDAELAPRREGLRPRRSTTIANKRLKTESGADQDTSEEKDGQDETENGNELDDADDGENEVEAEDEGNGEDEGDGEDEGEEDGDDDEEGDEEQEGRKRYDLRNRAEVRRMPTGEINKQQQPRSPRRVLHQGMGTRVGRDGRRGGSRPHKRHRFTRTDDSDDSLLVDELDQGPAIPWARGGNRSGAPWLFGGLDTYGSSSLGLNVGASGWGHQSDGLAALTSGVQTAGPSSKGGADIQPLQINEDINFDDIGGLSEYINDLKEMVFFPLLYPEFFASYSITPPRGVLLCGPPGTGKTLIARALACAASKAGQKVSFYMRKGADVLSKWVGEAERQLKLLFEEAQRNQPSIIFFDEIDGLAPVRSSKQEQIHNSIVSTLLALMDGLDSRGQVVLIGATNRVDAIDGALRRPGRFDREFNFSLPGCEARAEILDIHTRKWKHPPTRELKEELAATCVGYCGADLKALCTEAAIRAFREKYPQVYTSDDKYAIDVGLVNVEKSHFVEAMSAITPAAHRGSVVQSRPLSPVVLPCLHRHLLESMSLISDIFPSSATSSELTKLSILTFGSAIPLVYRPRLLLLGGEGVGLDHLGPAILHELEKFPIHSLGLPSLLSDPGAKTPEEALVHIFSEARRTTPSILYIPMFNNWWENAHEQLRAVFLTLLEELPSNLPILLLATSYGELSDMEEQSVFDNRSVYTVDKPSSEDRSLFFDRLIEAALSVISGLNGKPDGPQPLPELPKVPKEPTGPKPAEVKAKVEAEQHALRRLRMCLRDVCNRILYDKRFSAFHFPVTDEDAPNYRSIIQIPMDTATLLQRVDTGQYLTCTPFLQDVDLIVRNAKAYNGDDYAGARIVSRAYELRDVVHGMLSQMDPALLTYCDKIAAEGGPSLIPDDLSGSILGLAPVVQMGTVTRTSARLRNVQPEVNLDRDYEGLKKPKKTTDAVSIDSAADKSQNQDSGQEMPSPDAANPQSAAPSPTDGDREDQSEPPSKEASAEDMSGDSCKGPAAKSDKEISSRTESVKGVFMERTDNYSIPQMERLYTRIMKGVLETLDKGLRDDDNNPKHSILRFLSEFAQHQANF
The test is described as follows: co-IP; Anti-Flag M2 Affinity Gel on lysate of plants from crosses carrying BRAT1-Flag and BRP1-Myc or ROS1-Myc, 4 °C 2.5 h, Lysis buffer; eluted with 3xFlag peptides; western blot.

These are yes or no findings as the source states them, for the method shown. In cells and extracts the contact can be indirect. Binding can be weak; no strength is given. Where a sequence is shown, tags or fusion partners need not be part of it.

In the case of “BRP1-3xMyc (BRAT1 Partner 1, AT3G15120) (Arabidopsis thaliana)”, the binding entry is listed as “binds”.
